According to paper PMC9925730, “Controlled sequential in situ self-assembly and disassembly of a fluorogenic cisplatin prodrug for cancer theranostics” (Nature Communications, 2023):
“And” between values parts separate entries of the source, which are not always exact repeats. Equal entries are not always repeated. Further values from the same series stand in other lists.

Chains of the proteins cited; added tags and fusions are not shown. Residues count along the entry.
UniProt P19111, 20-533: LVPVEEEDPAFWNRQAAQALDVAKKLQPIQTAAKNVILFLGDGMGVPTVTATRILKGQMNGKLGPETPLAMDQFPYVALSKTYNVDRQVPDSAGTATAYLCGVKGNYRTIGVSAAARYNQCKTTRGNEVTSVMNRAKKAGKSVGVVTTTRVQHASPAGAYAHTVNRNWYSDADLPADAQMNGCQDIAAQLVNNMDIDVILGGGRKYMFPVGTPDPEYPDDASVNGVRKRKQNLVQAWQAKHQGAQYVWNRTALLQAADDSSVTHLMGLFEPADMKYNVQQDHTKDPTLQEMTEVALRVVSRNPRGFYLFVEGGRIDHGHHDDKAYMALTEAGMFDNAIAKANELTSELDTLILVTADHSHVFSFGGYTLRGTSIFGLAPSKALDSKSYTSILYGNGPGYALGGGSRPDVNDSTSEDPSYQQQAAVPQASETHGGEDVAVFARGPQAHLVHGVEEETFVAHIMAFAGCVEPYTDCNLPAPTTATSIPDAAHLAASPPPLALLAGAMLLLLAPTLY

Biological target: T1, ALP (Bos taurus, UniProt P19111)
T1 construct: Alkaline phosphatase from bovine; purchased Sigma-Aldrich; host or cells: bovine intestinal mucosa (tissue-derived)
Experiment: Dephosphorylated efficacy of P-CyPt towards varying concentrations of ALP (NIR fluorescence)
Assay type: biochemical

CC1(C)C(/C=C/C2=C3Oc4cc(OP(=O)(O)O)c(Cl)cc4C=C3CCC2)=[N+](CCCNC(=O)[C@@H](Cc2ccccc2)NC(=O)[C@@H](Cc2ccccc2)NC(=O)CCC(=O)[O][Pt]([NH2])([NH2])([OH])([Cl])[Cl])c2ccccc21 [P-CyPt]
Normalized FL intensity (ALP 50 U/L, 20 min, single samples): 5.296 and 5.448 and 5.639
Normalized FL intensity (ALP 50 U/L, 22 min, mean of 3 samples): 5.941
Normalized FL intensity (ALP 50 U/L, 22 min, single samples): 5.783 and 5.883 and 6.157
Normalized FL intensity (ALP 50 U/L, 24 min, mean of 3 samples): 6.413
Normalized FL intensity (ALP 50 U/L, 24 min, single samples): 6.178 and 6.457 and 6.604
Normalized FL intensity (ALP 50 U/L, 26 min, mean of 3 samples): 6.764
Normalized FL intensity (ALP 50 U/L, 26 min, single samples): 6.596 and 6.63 and 7.065
Normalized FL intensity (ALP 50 U/L, 28 min, mean of 3 samples): 7.301
Normalized FL intensity (ALP 50 U/L, 28 min, single samples): 7.048 and 7.33 and 7.526
Normalized FL intensity (ALP 50 U/L, 30 min, mean of 3 samples): 7.742
Normalized FL intensity (ALP 50 U/L, 30 min, single samples): 7.4913 and 7.8 and 7.935
Normalized FL intensity (ALP 100 U/L, 0 min, mean of 3 samples): 0.9638
Normalized FL intensity (ALP 100 U/L, 0 min, single samples): 0.9261 and 0.9435 and 1.022
Normalized FL intensity (ALP 100 U/L, 2 min, mean of 3 samples): 1.793
Normalized FL intensity (ALP 100 U/L, 2 min, single samples): 1.73 and 1.748 and 1.9
Normalized FL intensity (ALP 100 U/L, 4 min, mean of 3 samples): 2.443
Normalized FL intensity (ALP 100 U/L, 4 min, single samples): 2.43 and 2.439 and 2.461
Normalized FL intensity (ALP 100 U/L, 6 min, mean of 3 samples): 3.13
Normalized FL intensity (ALP 100 U/L, 6 min, single samples): 3.1 and 3.113 and 3.178
Normalized FL intensity (ALP 100 U/L, 8 min, mean of 3 samples): 3.943
Normalized FL intensity (ALP 100 U/L, 8 min, single samples): 3.878 and 3.943 and 4.0087
Normalized FL intensity (ALP 100 U/L, 18 min, mean of 3 samples): 6.881
Normalized FL intensity (ALP 100 U/L, 18 min, single samples): 6.761 and 6.813 and 7.07
Normalized FL intensity (ALP 100 U/L, 20 min, mean of 3 samples): 7.472
Normalized FL intensity (ALP 100 U/L, 20 min, single samples): 7.413 and 7.452 and 7.552
Normalized FL intensity (ALP 100 U/L, 22 min, mean of 3 samples): 7.851
Normalized FL intensity (ALP 100 U/L, 22 min, single samples): 7.748 and 7.852 and 7.952
Normalized FL intensity (ALP 100 U/L, 24 min, mean of 3 samples): 8.357
Normalized FL intensity (ALP 100 U/L, 24 min, single samples): 8.326 and 8.343 and 8.4
Normalized FL intensity (ALP 100 U/L, 26 min, mean of 3 samples): 8.425
Normalized FL intensity (ALP 100 U/L, 26 min, single samples): 8.326 and 8.461 and 8.487
Normalized FL intensity (ALP 100 U/L, 28 min, mean of 3 samples): 8.4
Normalized FL intensity (ALP 100 U/L, 28 min, single samples): 8.374 and 8.383 and 8.443
Normalized FL intensity (ALP 100 U/L, 30 min, mean of 3 samples): 8.367
Normalized FL intensity (ALP 100 U/L, 30 min, single samples): 8.343 and 8.352 and 8.404
Normalized FL intensity (ALP 200 U/L, 0 min, mean of 3 samples): 0.9493
Normalized FL intensity (ALP 200 U/L, 0 min, single samples): 0.9609 and 0.8826 and 1.004
Normalized FL intensity (ALP 200 U/L, 2 min, mean of 3 samples): 1.858
Normalized FL intensity (ALP 200 U/L, 2 min, single samples): 1.852 and 1.83 and 1.8913
Normalized FL intensity (ALP 200 U/L, 4 min, mean of 3 samples): 2.71
Normalized FL intensity (ALP 200 U/L, 4 min, single samples): 2.735 and 2.643 and 2.752
Normalized FL intensity (ALP 200 U/L, 6 min, mean of 3 samples): 3.807
Normalized FL intensity (ALP 200 U/L, 6 min, single samples): 3.596 and 3.774 and 4.052
Normalized FL intensity (ALP 200 U/L, 8 min, mean of 3 samples): 4.717
Normalized FL intensity (ALP 200 U/L, 8 min, single samples): 4.474 and 4.73 and 4.948
Normalized FL intensity (ALP 200 U/L, 16 min, mean of 3 samples): 7.213
Normalized FL intensity (ALP 200 U/L, 16 min, single samples): 7.083 and 7.004 and 7.552
Normalized FL intensity (ALP 200 U/L, 18 min, mean of 3 samples): 7.878
Normalized FL intensity (ALP 200 U/L, 18 min, single samples): 7.813 and 7.852 and 7.97
Normalized FL intensity (ALP 200 U/L, 20 min, mean of 3 samples): 8.21
Normalized FL intensity (ALP 200 U/L, 20 min, single samples): 7.952 and 8.213 and 8.465
Normalized FL intensity (ALP 200 U/L, 22 min, mean of 3 samples): 8.501
Normalized FL intensity (ALP 200 U/L, 22 min, single samples): 8.452 and 8.648 and 8.404
Normalized FL intensity (ALP 200 U/L, 24 min, mean of 3 samples): 8.623
Normalized FL intensity (ALP 200 U/L, 24 min, single samples): 8.843 and 8.613 and 8.413
Normalized FL intensity (ALP 200 U/L, 26 min, mean of 3 samples): 8.57
Normalized FL intensity (ALP 200 U/L, 26 min, single samples): 8.6913 and 8.6 and 8.417
Normalized FL intensity (ALP 200 U/L, 28 min, mean of 3 samples): 8.629
Normalized FL intensity (ALP 200 U/L, 28 min, single samples): 8.3913 and 8.743 and 8.752
Normalized FL intensity (ALP 200 U/L, 30 min, mean of 3 samples): 8.378
Normalized FL intensity (ALP 200 U/L, 30 min, single samples): 8.4 and 8.296 and 8.439
Normalized FL intensity (ALP 500 U/L, 0 min, mean of 3 samples): 0.9826
Normalized FL intensity (ALP 500 U/L, 0 min, single samples): 0.9391 and 1 and 1.0087
Normalized FL intensity (ALP 500 U/L, 2 min, mean of 3 samples): 1.93
Normalized FL intensity (ALP 500 U/L, 2 min, single samples): 1.896 and 1.926 and 1.97
Normalized FL intensity (ALP 500 U/L, 4 min, mean of 3 samples): 3.083
Normalized FL intensity (ALP 500 U/L, 4 min, single samples): 2.874 and 2.935 and 3.439
Normalized FL intensity (ALP 500 U/L, 6 min, mean of 3 samples): 4.441
Normalized FL intensity (ALP 500 U/L, 6 min, single samples): 4.026 and 4.539 and 4.757
Normalized FL intensity (ALP 500 U/L, 8 min, mean of 3 samples): 5.4029
Normalized FL intensity (ALP 500 U/L, 8 min, single samples): 5.357 and 5.417 and 5.435
Normalized FL intensity (ALP 500 U/L, 16 min, mean of 3 samples): 7.73
Normalized FL intensity (ALP 500 U/L, 16 min, single samples): 7.539 and 7.6 and 8.052
Normalized FL intensity (ALP 500 U/L, 18 min, mean of 3 samples): 8.032
Normalized FL intensity (ALP 500 U/L, 18 min, single samples): 7.974 and 8.065 and 8.057
Normalized FL intensity (ALP 500 U/L, 20 min, mean of 3 samples): 8.168
Normalized FL intensity (ALP 500 U/L, 20 min, single samples): 7.97 and 7.978 and 8.557
Normalized FL intensity (ALP 500 U/L, 22 min, mean of 3 samples): 8.47
Normalized FL intensity (ALP 500 U/L, 22 min, single samples): 8.483 and 8.422 and 8.504
Normalized FL intensity (ALP 500 U/L, 24 min, mean of 3 samples): 8.454
Normalized FL intensity (ALP 500 U/L, 24 min, single samples): 8.43 and 8.426 and 8.504
Normalized FL intensity (ALP 500 U/L, 26 min, mean of 3 samples): 8.468
Normalized FL intensity (ALP 500 U/L, 26 min, single samples): 8.417 and 8.478 and 8.5087
Normalized FL intensity (ALP 500 U/L, 28 min, mean of 3 samples): 8.4942
Normalized FL intensity (ALP 500 U/L, 28 min, single samples): 8.426 and 8.478 and 8.578
Normalized FL intensity (ALP 500 U/L, 30 min, mean of 3 samples): 8.483
Normalized FL intensity (ALP 500 U/L, 30 min, single samples): 8.426 and 8.487 and 8.535
